Test results as given in patent publication US20180148492A1 (CHILDREN S HOSPITAL MEDICAL CENTER, published 2018).
Results are given in words; binding and its absence hold for the method and conditions named. Some binding calls cover weakened binding; strength is not graded here.

By UniProt entry, the sequences of proteins in these tests, tags left out. Where a name states a change or a piece, a line headed by the entry shows the natural chain unless it says otherwise.
UniProt P13612: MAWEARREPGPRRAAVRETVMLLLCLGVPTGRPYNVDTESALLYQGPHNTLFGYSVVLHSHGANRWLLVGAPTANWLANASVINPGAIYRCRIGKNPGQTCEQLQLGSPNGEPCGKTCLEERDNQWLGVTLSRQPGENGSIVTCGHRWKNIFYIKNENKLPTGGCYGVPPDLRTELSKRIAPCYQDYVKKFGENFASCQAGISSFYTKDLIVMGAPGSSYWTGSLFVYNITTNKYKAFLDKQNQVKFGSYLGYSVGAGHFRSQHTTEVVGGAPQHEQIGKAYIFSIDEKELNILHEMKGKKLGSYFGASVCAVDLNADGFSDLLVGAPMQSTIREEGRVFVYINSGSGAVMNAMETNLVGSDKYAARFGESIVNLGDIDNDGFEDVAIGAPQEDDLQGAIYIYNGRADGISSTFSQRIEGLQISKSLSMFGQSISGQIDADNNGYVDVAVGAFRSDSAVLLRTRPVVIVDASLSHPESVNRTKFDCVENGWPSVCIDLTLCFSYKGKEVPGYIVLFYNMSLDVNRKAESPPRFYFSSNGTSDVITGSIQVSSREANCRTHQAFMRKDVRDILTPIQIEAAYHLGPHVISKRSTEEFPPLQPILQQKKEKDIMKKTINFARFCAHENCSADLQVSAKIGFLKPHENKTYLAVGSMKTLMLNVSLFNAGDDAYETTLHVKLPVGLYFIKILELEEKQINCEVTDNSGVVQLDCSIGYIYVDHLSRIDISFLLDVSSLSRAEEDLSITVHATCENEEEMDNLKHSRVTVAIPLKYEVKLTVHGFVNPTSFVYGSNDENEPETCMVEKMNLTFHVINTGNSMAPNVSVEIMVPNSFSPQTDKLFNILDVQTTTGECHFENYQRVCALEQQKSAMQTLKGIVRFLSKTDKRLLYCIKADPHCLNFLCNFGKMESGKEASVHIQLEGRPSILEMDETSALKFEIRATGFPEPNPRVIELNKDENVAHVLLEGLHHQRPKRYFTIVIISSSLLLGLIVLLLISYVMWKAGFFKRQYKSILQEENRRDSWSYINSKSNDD
UniProt P26010: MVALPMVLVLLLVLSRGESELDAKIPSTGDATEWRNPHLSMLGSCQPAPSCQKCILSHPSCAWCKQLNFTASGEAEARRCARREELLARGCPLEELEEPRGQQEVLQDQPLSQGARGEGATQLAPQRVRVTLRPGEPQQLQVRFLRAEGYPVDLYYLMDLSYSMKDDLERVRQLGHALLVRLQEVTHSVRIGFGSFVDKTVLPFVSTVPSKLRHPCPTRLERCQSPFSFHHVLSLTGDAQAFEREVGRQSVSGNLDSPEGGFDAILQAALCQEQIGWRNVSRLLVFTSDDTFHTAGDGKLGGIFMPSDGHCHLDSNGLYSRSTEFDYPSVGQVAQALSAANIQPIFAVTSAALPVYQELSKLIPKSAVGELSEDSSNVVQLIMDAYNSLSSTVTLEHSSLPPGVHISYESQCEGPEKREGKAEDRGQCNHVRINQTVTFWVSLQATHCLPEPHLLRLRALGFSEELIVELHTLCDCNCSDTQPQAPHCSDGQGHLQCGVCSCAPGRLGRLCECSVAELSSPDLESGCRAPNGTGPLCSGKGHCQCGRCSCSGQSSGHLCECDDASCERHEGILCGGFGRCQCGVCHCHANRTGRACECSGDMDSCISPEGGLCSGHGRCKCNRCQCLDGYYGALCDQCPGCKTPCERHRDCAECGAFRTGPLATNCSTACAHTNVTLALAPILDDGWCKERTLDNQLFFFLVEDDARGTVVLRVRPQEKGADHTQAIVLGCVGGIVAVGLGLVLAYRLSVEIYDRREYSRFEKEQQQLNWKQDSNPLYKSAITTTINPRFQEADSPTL

Experiments:
[1] = target: T1, recombinant human integrin α4β7 (R&D Systems) (human) (UniProt P13612+P26010); test: summary at the head of the examples
[2] = target: T1, recombinant human integrin α4β7 (R&D Systems) (human); test: summary of the cell adhesion assay on coated α4β7
[3] = target: T1, recombinant human integrin α4β7 (R&D Systems) (human); test: Giemsa staining of the wells of the cell adhesion assay
[4] = target: T1, recombinant human integrin α4β7 (R&D Systems) (human); test: adhesion of transduced L929 cells to wells coated with recombinant α4β7, percent adherent cells

Measured: binding

B1: human CDH26 (cadherin 26) expressed on transduced cells (receptor)
chain: DSVQQETDDLTKQTKEKIYQPLRRSKRRWVITTLELEEEDPGPFPKLIGELFNNMSYNMSLMYLISGPGVDEYPEIGLFSLEDHENGRIYVHRPVDREMTPSFTVYFDVVERSTGKIVDTSLIFNIRISDVNDHAPQFPEKEFNITVQENQSAGQPIFQMLAVDLDEENTPNSQVLYFLISQTPLLKESGFRVDRLSGEIRLSGCLDYETAPQFTLLIRARDCGEPSLSSTTTVHVDVQEGNNHRPAFTQENYKVQIPEGRASQGVLRLLVQDRDSPFTSAWRAKFNILHGNEEGHFDISTDPETNEGILNVIKPLDYETRPAQSLIIVVENEERLVFCERGKLQPPRKAAASATVSVQVTDANDPPAFHPQSFIVNKEEGARPGTLLGTFNAMDPDSQIRYELVHDPANWVSVDKNSGVVITVEPIDRESPHVNNSFYVIIIHAVDDGFPPQTATGTLMLFLSDINDNVPTLRPRSRYMEVCESAVHEPLHIEAEDPDLEPFSDPFTFELDNTWGNAEDTWKLGRNWGQSVELLTLRSLPRGNYLVPLFIGDKQGLSQKQTVHVRICPCASGLTCVELADAEVGLHVGALFPVCAAFVALAVALLFLLRCYFVLEPKRHGCSVSNDEGHQTLVMYNAESKGTSAQTWSDVEGQRPALLICTAAAGPTQGVKDLEEVPPSAASQSAQARCALGSWGYGKPFEPRSVKNIHSTPAYPDATMHRQLLAPVEGRMAETLNQKLHVANVLEDDPGYLPHVYSEEGECGGAPSLSSLASLEQELQPDLLDSLGSKATPFEEIYSESGVPS
binds: all assays above
